# Screening data, single-dose tests

Sequences of proteins named here, by UniProt entry; tags and fusion partners are left off. Residues count along the entry.
UniProt A4I591, 1-473: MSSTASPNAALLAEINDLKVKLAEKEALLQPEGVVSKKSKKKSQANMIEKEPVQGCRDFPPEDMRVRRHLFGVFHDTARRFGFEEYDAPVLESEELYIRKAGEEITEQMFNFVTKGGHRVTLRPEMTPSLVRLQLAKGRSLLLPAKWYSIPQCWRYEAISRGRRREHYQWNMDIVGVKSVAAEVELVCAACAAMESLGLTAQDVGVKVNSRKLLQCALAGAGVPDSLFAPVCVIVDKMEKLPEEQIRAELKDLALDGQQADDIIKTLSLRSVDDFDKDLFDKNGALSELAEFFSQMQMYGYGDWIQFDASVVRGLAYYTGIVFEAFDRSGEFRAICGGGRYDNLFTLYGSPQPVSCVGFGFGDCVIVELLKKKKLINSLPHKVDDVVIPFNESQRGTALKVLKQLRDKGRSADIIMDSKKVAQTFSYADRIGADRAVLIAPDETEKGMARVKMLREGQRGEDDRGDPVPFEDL
UniProt P9WPC5, whole entry: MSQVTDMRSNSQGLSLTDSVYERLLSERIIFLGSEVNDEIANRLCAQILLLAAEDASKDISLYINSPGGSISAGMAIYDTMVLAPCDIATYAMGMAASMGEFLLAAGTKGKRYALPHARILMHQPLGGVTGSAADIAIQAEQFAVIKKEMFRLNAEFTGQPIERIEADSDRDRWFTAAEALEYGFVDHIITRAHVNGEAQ
UniProt P9WPC3, whole entry partner: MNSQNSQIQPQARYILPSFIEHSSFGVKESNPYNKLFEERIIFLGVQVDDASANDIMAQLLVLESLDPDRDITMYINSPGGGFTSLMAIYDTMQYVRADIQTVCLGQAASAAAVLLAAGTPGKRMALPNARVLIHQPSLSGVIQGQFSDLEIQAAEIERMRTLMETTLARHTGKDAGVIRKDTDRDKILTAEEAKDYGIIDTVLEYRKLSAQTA

Source: ChEMBL document CHEMBL3988442, “University of Dundee, Small-Polar-MMV Screening Library” (2021).

LiHisRS: 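Histidine-tRNA ligase, Leishmania infantum (UniProt A4I591). Enzyme assay of histidyl-tRNA synthetase; the read-out is not stated. Concentration: 30 µM. Direction is inferred from retests: higher values go with stronger inhibition. The assay is labelled LdHisRS but filed under L. infantum. Size under these conditions: about 69,000 compounds, about 410 of them at 50% or above in at least one test.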
Toxoplasma: 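Assay of Toxoplasma gondii numbers, read through their beta-galactosidase reporter with a colour substrate. Compounds at 10 µM. Higher reads as fewer parasites (inferred from which compounds were picked for retests). About 67,000 compounds were tested under these conditions; 0.38% (about 260) showed 50% or more at least once.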
ClpP1P2: 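ClpP1P2, Mycobacterium tuberculosis (UniProt P9WPC5 and UniProt P9WPC3). Protease assay of ClpP1P2, read by the AMC dye that it sets free. Concentration: 50 µM. Higher reads as stronger inhibition, judged from the few compounds that gave an IC50. Most other retested compounds had strongly negative values. Of about 69,000 compounds tested this way, about 10 (0.015%) reached 50% or more in at least one test.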
T. brucei: 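Whole-parasite assay of Trypanosoma brucei over 72 hours; the read-out is not stated. Concentration: 30 µM. Higher reads as stronger inhibition (inferred: compounds with an IC50 in retests scored well above the rest). Values scatter widely below zero; nearly all retest evidence comes from the higher of the two concentrations used. About 64,000 compounds were tested under these conditions; 1.5% (about 940) showed 50% or more at least once.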
Leishmania in macrophages: 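Cell assay of Leishmania donovani living inside macrophages; the read-out is not stated. Tested at 30 µM. Higher reads as stronger inhibition (inferred: compounds with an IC50 in retests scored well above the rest). Of about 69,000 compounds tested this way, about 1,000 (1.5%) reached 50% or more in at least one test.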

Each number is a percent effect as filed.
The record does not define 0% and 100%; most values in the screen are far below 50% and negative numbers occur (in some assays of this library far below -100).
This is an unselected part of the compounds tested.
Two or more numbers in one place are separate tests of the same structure; such repeats can differ widely.
A dash means the value is not listed here; it may have been measured.

SMILES,LiHisRS,Toxoplasma,ClpP1P2,T. brucei,Leishmania in macrophages
O=c1[nH]c2ncccc2n1C1CCCCC1,18.75,-1.174,-16.58,-,22
Cn1cc(CN2CCn3cc(CNC(=O)c4cccn4C)nc3C2)cn1,0.7299,-,4.699,-,-
CS(=O)(=O)c1ccc(OCCNCc2ccc(F)cc2F)cc1,19.05,16.51,-1.827,44.77,31.47
Cc1cc(NC(=O)NCc2cccnc2OC(C)C)no1,4.386,20.08,-22.33,-27.07,23.81
c1cnc(N2CCC3(CCCN(CC4CCCCC4)C3)C2)cn1 (stereo not given),30.56,-0.3748,3.658,-7.519,3.136
COCCC1(CO)CCCN(C(=O)c2cccnc2OC)C1 (stereo not given),2.564,-10.94,-1.381,-,-22.93
CC[C@@]1(O)CCN(C(=O)c2ccoc2)C[C@H]1O,17.74,19.83,-3.817,-54.71,-8.563
[H][C@@]12CN(C(C)=O)C[C@]1(C(=O)N(C)C)CCC21CCN(S(=O)(=O)CC)CC1,-,-1.59,-,-,-21.61
COCCCNC(=O)Cn1nnc(-c2cc3ccccc3o2)n1,11.61,1.34,5.275,-26.88,11.4
CN1CCCN(C(=O)NCCNc2ncccn2)CC1,-0.8772,35.1,-14.03,-40.83,-24.44
CCCc1n[nH]c(C2CN(CCCOc3ccccc3)CCO2)n1 (stereo not given),2.703,-8.155,2.148,24.04,33.14
Cc1nonc1C1CCCN1C(=O)c1cc2n(n1)CCCN(C(C)C)C2 (stereo not given),8.571,2.203,9.148,-45.76,20.2
COc1ccc(COCC(O)CNC(=O)Cc2ccc(C)cc2)cc1 (stereo not given),11.3,-11.6,-7.271,-3.076,8.469
O=C1CSc2ccc(C(=O)N3CCCC(n4ccnc4)C3)cc2N1 (stereo not given),14.29,-12.29,-2.055,-39.43,12.02
CCOc1ccc(N(CCC#N)C(=O)c2ccnc(SC)c2)cc1,48.68,0.2378,7.78,-48.16,2.544
Cc1nc(Cn2cnc3c(c(Br)nn3C)c2=O)cs1,20.43,-4.369,-4.793,-29.47,-13.81
COc1cccc(CN2CCCC(c3nn(C)c4nccnc34)C2)c1.Cl (stereo not given),-,-32.11,-,-9.344,-24.54
O=C(O)C(F)(F)F.O=C(O)C(F)(F)F.[H][C@@]12CN(Cc3cnn(C)c3)CCO[C@]1([H])CN(Cc1ccoc1)C2,-,3.386,-,-75.72,19.28 and -3.489
Cc1nnc(N2C[C@H](OCc3ccncc3)[C@H]3OCCC[C@H]32)s1,29.73,-,1.158,-,-
COCCCN1CCCN(C(C)C(=O)Nc2cccc(I)c2)CC1 (stereo not given),-3.846,-5.237,-3.735,-8.862,27.64
Cc1ccc(NC(=O)C2CSCN2C(=O)c2ccncc2)c(C)c1 (stereo not given),13.89,2.113,-15,-9.198,18.38
O=C(O)C(F)(F)F.[H][C@@]12OCCN(C(=O)CC3CC3)[C@@]1([H])CC[C@H]2OCCCn1cccn1,-,14.03,-,-5.432,10.8
CSCCCN1C[C@H](NC(=O)c2ccc(C#N)nc2)[C@@H](C2CC2)C1,6.557,-3.981,-4.537,-17.61,21
O=C(O)C(F)(F)F.[H][C@@]12CN(C(=O)c3ccncc3F)C[C@]1([H])OCCN2CC(=O)NC,-,-2.074,-,-60.76,15.53
CC(=O)N1CCN(CCNS(=O)(=O)c2cc(F)cc(F)c2)CC1,22.47,9.581,4.939,6.189,29.23
O=C(CSc1ccc2c(c1)OCCO2)NS(=O)(=O)c1ccccc1,6.061,10.99,-5.419,-18.7,-17.75
Cc1cccc(CN2C[C@@H]3COC[C@]3(COCC(=O)N(C)C)C2)n1,11.11,-,-18.62,-,-
CC(C)CCn1c(=O)nc2n1C(=O)N(c1ccc(F)cc1)C2,-11.43,0.4525,0.3652,-33.44,-15.2
CC(C)CN1C(=O)C2(CCCC2)NC12CCSCC2,3.03,-6.068,-5.98,-23.36,-11.56
CN(CC(N)=O)C(=O)C1Cc2cc(Cl)ccc2O1 (stereo not given),21.51,25.5,15.03,-13.38,34.98
CC(=O)N1CC(=O)N(c2cnn(C)c2)CC12CCN(Cc1ccoc1)C2 (stereo not given),11.54,0.9784,-1.063,10.6,2.939
COc1ccc(Oc2ccc(CNC(=O)C3CCS(=O)(=O)C3)cn2)cc1 (stereo not given),11.29,6.965,4.581,-48.36,26.31
CSCc1cc(F)ccc1CNC(=O)N1CCC[C@@H]1CO,7.143,8.739,-3.43,-13.47,9.299
COc1ccc(CNC(=O)Nc2ccc(S(=O)(=O)C(F)F)cc2)cc1,18.31,-1.079,14.71,-8.777,-19.19
Cc1ccc(CNc2nc(O)cc(C3CC(=O)N(C)C3)n2)cc1 (stereo not given),19.79,6.567,-0.04936,3.796,18.72
CCc1nnsc1C(=O)NCCCC(CC)(CC)C1OCCO1,8.036,-3.912,18.55,-26.57,-2.412
CCC(C)C(=O)N(CC(=O)OC)c1cccc(C)n1 (stereo not given),14.29,13.15,12.27,-39.52,9.39
[H][C@@]12C[C@H](C(=O)N3CCCCO3)CN(C(=O)c3cnccn3)[C@]1([H])CCO2,-,4.338,-,16.69,18.49
CC(C)Oc1cccc(Cc2nc3c([nH]2)CCCNC3=O)c1,16.24,-4.507,-3.737,-23.57,17.72
O=c1[nH]c(CCN2CCCCC2Cn2cccn2)nc2ccccc12 (stereo not given),8.929,-10.61,-22.49,-0.1616,1.358
Cc1ccc(C2CCCCCN2CCCS(C)(=O)=O)o1 (stereo not given),8,4.233,-17.46,-19.08,25.06
Cc1nc2cc(OCc3nc(C(=O)NC(C)(CO)CO)co3)ccc2s1,15.2,-9.327,5.903,-17.95,46.24
[H][C@@]12CS(=O)(=O)C[C@]1([H])N(Cc1nc3c(s1)CCCC3)CCN2CC(C)C,-,2.782,-,-19.58,-5.01
O=C(Cc1ccccc1O)NC1CCCN(c2ccccc2F)C1=O (stereo not given),-1.205,-0.5866,-7.277,-15.73,-0.7485
Cc1cccc(CN(Cc2ccc(C)o2)C2CC(C)(C)NC(C)(C)C2)n1,5.556,-,-3.854,-,-
CC(C)N(C)C(=O)CN1C(=O)OC[C@@H]1c1ccccc1,19.78,-5.12,-8.969,-32.67,13.14
O=C(CCCNc1ncccn1)Nc1ccc(Cn2cncn2)cc1,18.75,2.632,-5.255,-,16.25
COCCC(=O)NC(C)(C(N)=O)c1cccc(Cl)c1 (stereo not given),-2.381,-8.48,-11.84,-11.85,-12.21
CCc1nsc(N2CCN(C(=O)COc3ccccc3)CC2)n1,6.25,10.51,4.032,-17.44,3.096
CN1CCCN(C(=O)c2cnc(Cc3c(Cl)cccc3Cl)nc2O)CC1,8,-0.2959,-0.4939,6.891,-6.046
Cc1n[nH]c(C)c1CN(C)C(C(=O)O)c1ccc2c(c1)OCO2 (stereo not given),25.17,-5.401,12.79,10.62,19.55
O=c1c2c(ncn1CCCO)nc1n2CCC1,14.71,0.2938,-0.5608,10.23,4.379
CC(C)=CCC1(C(=O)O)CCCN(c2ccnc(N)n2)C1 (stereo not given),16.13,-5.177,-13.09,-1.095,-24.87
CSCC(=O)N1CCCCC1Cn1cc(C)cn1 (stereo not given),6.087,10.84,-5.996,5.906,11.43
Cc1cc(C)c(CN2CCCC23Cc2ccccc2CNC3=O)c(C)c1 (stereo not given),13.79,6.994,4.717,-,13.29
O=C(NCCc1cc(N2CCOCC2)nc(NC2CC2)n1)C1CC1,11.19,7.46,-10.58,-5.73,9.579